Experimental data taken from PubChem BioAssay AID1259246 (Broad Institute, 2017).
This list was built around the results that the source calls inconclusive (neither active nor inactive); the mix of calls is not that of the screen. Activity calls are given as the source filed them.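 Rule for the calls: active = valid dose-response fit whose half-maximal growth-inhibiting concentration is at or below a set limit above the top tested dose; inconclusive = flat fit with effect between 30 and 70%, or poor fit; inactive = half-maximal concentration above a set limit.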

experiment: antibacterial activity against Clostridioides difficile – 10-point retest, dose response (AID 1259246); conditions: Clostridioides difficile clinical isolate growth, OD600, 24 h; at 120 µM (top of the series) unless noted

Structure (SMILES) | activity change, negative = inhibition
C[C@H](CO)N1C[C@H](C)[C@@H](CN(C)C(=O)Nc2cccc3ccccc23)Oc2ccc(NC(=O)CCN3CCOCC3)cc2C1=O | inactive: 38.8%
COc1ccc(CN(C)C[C@@H]2Oc3ccc(NC(=O)Nc4ccc(C(F)(F)F)cc4)cc3C(=O)N([C@H](C)CO)C[C@H]2C)cc1 | inconclusive: 47.5% [at 135 µM]
CNC[C@H]1Oc2ccc(N)cc2CC(=O)N([C@H](C)CO)C[C@H]1C | inactive: -8.02%
COc1ccccc1S(=O)(=O)N(C)C[C@@H]1Oc2cc(/C=C/c3ccccc3)ccc2S(=O)(=O)N([C@@H](C)CO)C[C@H]1C | inactive: 32.3%
Cc1ccc(S(=O)(=O)Nc2ccc3c(c2)CC(=O)N([C@H](C)CO)C[C@H](C)[C@H](CN(C)C(=O)Nc2c(C)noc2C)O3)cc1 | inconclusive: 67.8%
N#C[C@H]1[C@H](c2ccc(C#Cc3ccc(F)cc3)cc2)[C@@H](CO)N1C(=O)C1CCCC1 | inconclusive: -2.12% [at 135 µM]
N#C[C@@H]1[C@@H](c2ccc(C#Cc3cccnc3)cc2)[C@@H](CO)N1C(=O)C1CCCCC1 | inactive: 1.92% [at 60 µM]
COc1ccccc1C#Cc1ccc([C@H]2[C@@H](CO)N(C(=O)C3CCCCC3)[C@H]2C#N)cc1 | inconclusive: -14.4% [at 75 µM]
CNC[C@@H]1Oc2ncc(-c3ccccc3C)cc2C(=O)N([C@H](C)CO)C[C@@H]1C | inconclusive: 55.3%
C[C@@H]1CN([C@@H](C)CO)C(=O)c2cccc(NC(=O)Nc3ccc(C(F)(F)F)cc3)c2O[C@H]1CN(C)C | inconclusive: 62.7% [at 30 µM]
C[C@@H]1CN([C@@H](C)CO)C(=O)c2cccc(NC(=O)c3ccncc3)c2O[C@H]1CN(C)Cc1ccc(Oc2ccccc2)cc1 | inconclusive: 69.8%
C[C@H](CO)N1C[C@H](C)[C@H](CN(C)Cc2ccc(Oc3ccccc3)cc2)Oc2ccc(NC(=O)C3CC3)cc2CC1=O | inactive: 12.9%
O=C(C[C@H]1C=C[C@@H](NC(=O)CCN2CCCCC2)[C@H](CO)O1)Nc1ccc(-c2ccccc2)cc1 | inconclusive: 34.8%
O=C(C[C@H]1C[C@@H]2c3cc(NC(=O)C4CCC4)ccc3O[C@@H]2[C@@H](CO)O1)NCc1cccc(F)c1 | inconclusive: 44.9% [at 135 µM]
O=C(C[C@@H]1C[C@H]2c3cc(NC(=O)C4CCC4)ccc3O[C@H]2[C@@H](CO)O1)NCc1ccc(Cl)cc1 | inactive: 6.13% [at 135 µM]
C[C@@H]1CN([C@@H](C)CO)C(=O)c2ccccc2-c2ccccc2CO[C@@H]1CN(C)Cc1ccccc1C(F)(F)F | inconclusive: 70.2%
C[C@@H]1CN([C@H](C)CO)C(=O)c2cccc(NC(=O)Nc3ccc(C(F)(F)F)cc3)c2O[C@@H]1CN(C)Cc1ccc(-c2ccccc2)cc1 | inconclusive: -45.6%
N#C[C@H]1[C@@H](c2ccc(C#CC3CCCCC3)cc2)[C@@H](CO)N1C(=O)Cc1ccccn1 | inconclusive: 110% [at 160 µM]
C[C@@H]1CN([C@@H](C)CO)S(=O)(=O)c2ccc(-c3ccc(C(=O)N(C)C)cc3)cc2O[C@H]1CN(C)Cc1ccccc1C(=O)O | inconclusive: 66.3% [at 135 µM]
C[C@H](CO)N1C[C@H](C)[C@@H](CN(C)S(C)(=O)=O)OCCCC[C@H](C)Oc2ccc(NC(=O)Nc3cccc4ccccc34)cc2C1=O | inactive: 9.57% [at 60 µM]
C[C@@H]1CN([C@H](C)CO)C(=O)Cc2cc(NC(=O)C3CC3)ccc2O[C@H]1CN(C)Cc1ccc(Oc2ccccc2)cc1 | inactive: 20.2%
C[C@@H]1CN([C@@H](C)CO)C(=O)Cc2cc(NC(=O)C3CC3)ccc2O[C@@H]1CN(C)Cc1ccccc1 | inactive: 0.355% [at 135 µM]
C[C@@H]1CCCCO[C@@H](CN(C)S(=O)(=O)c2ccc(F)cc2)[C@@H](C)CN([C@@H](C)CO)C(=O)c2cc(NC(=O)Nc3cccc4ccccc34)ccc2O1 | inactive: 12.1%
C[C@H]1CN([C@@H](C)CO)C(=O)c2cccc(NC(=O)Nc3ccc(C(F)(F)F)cc3)c2O[C@H]1CN(C)C(=O)NC1CCCCC1 | inconclusive: -40.5% [at 135 µM]
COc1ccc(CN(C)C[C@H]2Oc3c(NC(=O)Nc4ccc(C(F)(F)F)cc4)cccc3C(=O)N([C@H](C)CO)C[C@@H]2C)cc1 | inconclusive: 89.9%
COc1ccc(CN(C)C[C@@H]2Oc3ccc(NC(=O)Nc4ccc(C(F)(F)F)cc4)cc3C(=O)N([C@@H](C)CO)C[C@@H]2C)cc1 | inconclusive: 17.7%
C[C@@H]1CN([C@@H](C)CO)C(=O)c2cccc(NS(=O)(=O)c3ccc(F)cc3)c2O[C@@H]1CN(C)Cc1ccc(-c2ccccc2)cc1 | inconclusive: -22.3% [at 135 µM]
C[C@@H]1CN([C@@H](C)CO)C(=O)Cc2cc(NC(=O)C3CCCCC3)ccc2O[C@@H]1CN(C)Cc1ccc(-c2ccccc2)cc1 | inactive: 19%
C[C@@H]1CN([C@H](C)CO)C(=O)Cc2cc(NC(=O)Nc3ccc(C(F)(F)F)cc3)ccc2O[C@@H]1CN(C)Cc1ccncc1 | inconclusive: -3.82% [at 60 µM]
CO[C@H]1CN(C)C(=O)c2cc(NC(=O)c3ccc(-c4ccccc4)cc3)ccc2OC[C@@H](C)NC[C@H]1C | inconclusive: -8.6% [at 30 µM]

2 records drawn at random from those above, as already listed:
Structure (SMILES) | activity change, negative = inhibition
N#C[C@@H]1[C@@H](c2ccc(C#Cc3cccnc3)cc2)[C@@H](CO)N1C(=O)C1CCCCC1 | inactive: 1.92% [at 60 µM]
C[C@@H]1CN([C@H](C)CO)C(=O)Cc2cc(NC(=O)Nc3ccc(C(F)(F)F)cc3)ccc2O[C@@H]1CN(C)Cc1ccncc1 | inconclusive: -3.82% [at 60 µM]
